In test [1] the target is S87C SpoIVFA (Bacillus subtilis) (UniProt P26936). As to the kind of experiment: cross-linking; in vivo disulfide crosslinking in E. coli coexpressing BofA and SpoIVFA variants with Cys-less SpoIVFB and Pro-σK(1-127); cells treated with 1 mM Cu2+(phenanthroline)3 for 60 min at 37°C in 10 mM Tris-HCl pH 8.1; controls with DTT or Cu followed by DTT; anti-SpoIVFA or anti-MBP immunoblot. Background: Immunoblotting shows a protein as a band on a membrane.

Chains of the proteins cited; added tags and fusions are not shown. Lines headed by an entry give the natural chain unless they say otherwise; changes in a name come on top.
UniProt P26936: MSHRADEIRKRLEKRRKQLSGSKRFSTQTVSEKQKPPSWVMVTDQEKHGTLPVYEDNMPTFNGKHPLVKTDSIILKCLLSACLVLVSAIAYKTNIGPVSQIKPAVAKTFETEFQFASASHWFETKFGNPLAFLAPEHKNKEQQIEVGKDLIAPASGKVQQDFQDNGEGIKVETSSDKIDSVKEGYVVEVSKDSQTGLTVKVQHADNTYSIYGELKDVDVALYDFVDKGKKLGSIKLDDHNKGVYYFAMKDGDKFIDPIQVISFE
UniProt P24282: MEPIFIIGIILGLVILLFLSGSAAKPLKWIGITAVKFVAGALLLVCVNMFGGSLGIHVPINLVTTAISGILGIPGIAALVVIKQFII

In test [2] the target is A88C SpoIVFA (Bacillus subtilis) (UniProt P26936). The description is as above.
For test [3] the target is unchanged. As to the kind of experiment: cross-linking; in vivo disulfide crosslinking in E. coli as in a1 but stringent: Cu2+(phenanthroline)3 in a 10-fold dilution series (1 mM to 0.1 µM) or at 100 µM, for 5 min at 37°C; anti-SpoIVFA immunoblot.
Test [4] concerns the target V84C SpoIVFA (Bacillus subtilis) (UniProt P26936). As to the kind of experiment: cross-linking; in vivo disulfide crosslinking in E. coli coexpressing BofA and SpoIVFA variants with Cys-less SpoIVFB and Pro-σK(1-127); cells treated with 1 mM Cu2+(phenanthroline)3 for 60 min at 37°C in 10 mM Tris-HCl pH 8.1; controls with DTT or Cu followed by DTT; anti-SpoIVFA or anti-MBP immunoblot.

The target is the same in test [5]. As to the kind of experiment: cross-linking; in vivo disulfide crosslinking in E. coli as in a1 but stringent: Cu2+(phenanthroline)3 in a 10-fold dilution series (1 mM to 0.1 µM) or at 100 µM, for 5 min at 37°C; anti-SpoIVFA immunoblot.

No constants are given. Whether binding was seen depends on the method and setting. In cells and extracts the contact can be indirect. A result given as binding can be weak or reduced; the word gives no strength.

Take “I82C MBPΔ27BofA (from UniProt P24282) (domain or fragment)”: the binding result in test [1] is reported as “binds”.
With “I86C BofA (full-length) (from UniProt P24282)”, in test [2], the binding result was “binds”.
“I86C MBPΔ27BofA (from UniProt P24282) (domain or fragment)”: the binding entry in test [3] and in test [2] was “binds” each time.
“T65C BofA (full-length) (from UniProt P24282)”: in test [4], the binding result is reported as “binds”.
“T65C MBPΔ27BofA (from UniProt P24282) (domain or fragment)”: the binding entry in test [5] and in test [4] was “binds” throughout.
Regarding “V81C BofA (full-length) (from UniProt P24282)”, in test [4], the binding result is “binds”.
As to “V81C MBPΔ27BofA (from UniProt P24282) (domain or fragment)”, the binding result in test [5] and in test [4] was “binds” each time.

The values above are taken from PMC12632252.
